Taken from: PubChem BioAssay AID602196 (INSERM, 2012)
The whole screen tested about 23,000 reagents; shown is an unselected part. 455 of all reagents (2%) were called active. 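Active includes both protection and sensitisation; some change values fall well beyond the stated -50 to +50 range.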 Unmarked entries are inactive. Reagents against one gene are numbered here. Not stated in the record: the amount of reagent.

Purpose: 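Modifiers of cisplatin sensitivity in A549 cells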
Cell system: human A549 lung cancer cells
Knock-down reagent: siRNA pair against human genes
Time to read-out: 48 h transfection before cisplatin; time from cisplatin to read-out not stated
Challenge: cisplatin at a dose killing half of control-siRNA cells; exact dose and duration not given
Measurement: 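Shift in cisplatin death relative to control siRNA, from -50 (all cells die) to +50 (no cells die); siRNAs harmful on their own scored 0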
Scale: two-siRNA summed score (-2 to +2): higher = both siRNAs protect from cisplatin killing; -2 means both sensitise; mean protection from cisplatin (shift in death) and protection from cisplatin (shift in death), siRNA C and protection from cisplatin (shift in death), siRNA D: higher = protection from cisplatin killing
Call rule: 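Each siRNA scores 0 if harmful alone by LDH or WST-1, otherwise +1 if it reduces and -1 if it increases cisplatin killing; a gene is active when both siRNAs agree (sum +2 or -2)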
Calls: active = both siRNAs shift cisplatin killing the same way; inactive = no consistent shift, or siRNA harmful alone

gene knocked down	reagent no.	two-siRNA summed score (-2 to +2)	mean protection from cisplatin (shift in death) (%)	protection from cisplatin (shift in death), siRNA C (%)	protection from cisplatin (shift in death), siRNA D (%)
SEPTIN14P6 (septin 14 pseudogene 6)	1	0	4.2	7.3	1
LOC441401	1	0	-4	2.6	-10.7
KCNQ1DN (KCNQ1 downstream neighbor)	1	0	1.4	3.7	-0.8
SST (somatostatin)	1	0	7.4	-4.4	19.2
LBX2 (ladybird homeobox 2)	1	0	10.5	14.5	6.5
ST13P5 (ST13, Hsp70 interacting protein pseudogene 5)	1	0	11	8.6	13.5
LINC01879 (long intergenic non-protein coding RNA 1879)	1	0	-4	-7.9	-0.1
CAPRIN2 (caprin family member 2)	1	0	9.8	10.8	8.8
CCL14 (C-C motif chemokine ligand 14)	1	0	-4.4	4.2	-12.9
WWP1P1	1	1	13.9	3.9	24
INCENP (inner centromere protein)	1	0	4.8	4.2	5.4
LOC390856	1	1	13.7	11.5	15.8
DGKE (diacylglycerol kinase epsilon)	1	-1	-5.1	-0.4	-9.8

Quoted from the listing (3 entries):
gene knocked down	reagent no.	two-siRNA summed score (-2 to +2)	mean protection from cisplatin (shift in death) (%)	protection from cisplatin (shift in death), siRNA C (%)	protection from cisplatin (shift in death), siRNA D (%)
SEPTIN14P6 (septin 14 pseudogene 6)	1	0	4.2	7.3	1
LOC441401	1	0	-4	2.6	-10.7
KCNQ1DN (KCNQ1 downstream neighbor)	1	0	1.4	3.7	-0.8

The list goes on.
gene knocked down	reagent no.	two-siRNA summed score (-2 to +2)	mean protection from cisplatin (shift in death) (%)	protection from cisplatin (shift in death), siRNA C (%)	protection from cisplatin (shift in death), siRNA D (%)
IGDCC4 (immunoglobulin superfamily DCC subclass member 4)	1	0	1.8	18.8	-15.3
LRRC30 (leucine rich repeat containing 30)	1	0	-2.1	-12.2	8
UBR3 (ubiquitin protein ligase E3 component n-recognin 3)	1	0	11.1	7.7	14.4
MGARP (mitochondria localized glutamic acid rich protein)	1	0	2.6	2.6	2.5
OR7D4 (olfactory receptor family 7 subfamily D member 4)	1	1	-1.7	24.9	-28.4
OR7D4 (olfactory receptor family 7 subfamily D member 4)	2	1	16.5	2.5	30.4
CBLB (Cbl proto-oncogene B)	1	1	23.8	14.8	32.9
PSMD8 (proteasome 26S subunit, non-ATPase 8)	1	0	9.5	-4.8	23.7
TMEM51-AS1 (TMEM51 antisense RNA 1)	1	0	1.5	-4.7	7.6
LOC400403	1	0	5.6	12	-0.8
